Measurements reported in PubChem BioAssay AID652272 (Drosophila RNAi Screening Center, 2013).
Purpose: 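Genes whose knock-down decreases or increases Hedgehog reporter output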 (primary screen). System: Drosophila clone 8 (Cl8) cells. Knock-down reagent: long dsRNA against Drosophila genes. Measured: 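Plate reader light from a firefly reporter under a ptc promoter fragment that responds to Hedgehog, with Renilla light as transfection reference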. Scale: firefly Hh reporter signal: higher = more ptc reporter light; Renilla reference signal: higher = more Renilla control light. Active means: 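Hit when the z-score averaged over two replicates is under -2 or over +3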. Meaning of the calls: active = hit: reporter lowered or raised; inactive = not a hit.
The deposit covers about 21,000 reagents; this is a random part of those with a known target gene and a result. Of all reagents, 503 (2.4%) were called active. 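Raw plate light values, not normalised; calls rest on replicate z-scores that were not deposited; hits include reporter decreases as well as increases.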 Names joined by + are all predicted targets of the reagent. Not given: the amount of reagent, the time to read-out.

target	DRSC id	firefly Hh reporter signal, replicate 1	firefly Hh reporter signal, replicate 2	firefly Hh reporter signal, replicate 3	Renilla reference signal, replicate 1	Renilla reference signal, replicate 2	Outcome
CG5355 (GeneID 34421)	DRSC02844	61162	62619		3450	2727	inactive
CG41020 (retired record) (GeneID 5740564)	DRSC20866	5.89e5	2.24e5		34001	5219	inactive
Mst84Dc (GeneID 40887)	DRSC12599	1.25e5	88248		5395	2965	inactive
wds (GeneID 53428)	DRSC18852	81587	1.66e5		2609	5067	inactive
TTLL3B (GeneID 33946)	DRSC02133	60107	51803		1773	4774	inactive
GatA (GeneID 42283)	DRSC16956	1.56e5	74545		6315	3286	inactive
CG32195 (GeneID 317907)	DRSC09533	2.18e5			5184		inactive
GluRIA (GeneID 38742)	DRSC11176	56343	76604		6205	5653	inactive
Cyp312a1 (GeneID 40005)	DRSC11128	74763			1402	3609	inactive
CG7747 (GeneID 36820)	DRSC07038	1.11e5	78973		4880	3834	inactive
Sulf1 (GeneID 53437)	DRSC13150	59328	1.38e5		13036	3018	inactive
Sulf1 (GeneID 53437)	DRSC16874	79562	1.07e5		1661	3416	inactive
wapl (GeneID 31187)	DRSC18851	1.26e5	93987		2864	2733	inactive
her (GeneID 34992)	DRSC03543	61165	81584		2893	3536	inactive
Vm26Aa (GeneID 33829)	DRSC03472	1.67e5	51305		4247	5488	inactive
Ca-alpha1T (GeneID 31550)	DRSC17842	96048	1.30e5		3323	5612	inactive
Ca-alpha1T (GeneID 31550)	DRSC18103	1.61e5	5.52e5	3.00e5	6108	3272	inactive
Ca-alpha1T (GeneID 31550)	DRSC18356	62401	1.21e5		2085	4976	inactive
Ca-alpha1T (GeneID 31550)	DRSC18357	66459	1.50e5		2663	5707	inactive
side-VII (GeneID 41184)	DRSC14578	1.14e5	90885		5696	3952	inactive
Klp59C (GeneID 37671)	DRSC04348	1.15e5	67888		2741	5651	inactive
CG14327 (GeneID 42118)	DRSC14806	1.25e5	1.14e5		5172	1977	inactive
IntS3 (GeneID 3355010)	DRSC21215	79689	1.53e5		2361	7130	inactive
Mybbp1A (GeneID 31010)	DRSC18788	91738	64154		2189	2464	inactive
GstE3 (GeneID 37108)	DRSC06673	1.01e5	52443		2979	4227	inactive
sgg (GeneID 31248)	DRSC17228	5.44e5	2.64e5		29722	6042	inactive
sgg (GeneID 31248)	DRSC17722	5.47e5	2.70e5		26677	5409	inactive
sgg (GeneID 31248)	DRSC18832	70440	1.33e5		1920	5115	inactive
svr (GeneID 30998)	DRSC17293	4.37e5	1.91e5		21090	3847	inactive
svr (GeneID 30998)	DRSC18841	1.47e5	2.73e5		5937	11556	inactive
loco (GeneID 42672)	DRSC15202	6.78e5	1.51e5		33876	4944	inactive
loco (GeneID 42672)	DRSC16989	79392	1.06e5		3348	4050	inactive
escl (GeneID 34611)	DRSC02828	1.99e5	1.04e5		7364	4123	inactive
CG17991 (GeneID 43279)	DRSC15294	99138	1.09e5		3712	3848	inactive
RpLP0 (GeneID 40451)	DRSC11878	72009	69383		2754	3893	active
obst-A (GeneID 33022)	DRSC20543	1.23e5	1.37e5		2992	3360	inactive
tau (GeneID 326116)	DRSC14569	1.18e5	1.01e5		2521	3607	inactive
CG31272 (GeneID 326130)	DRSC16058	69718	1.23e5		2065	3606	inactive
Atg5 (GeneID 31666)	DRSC18112	81259	98425		1826	1924	inactive
CG14565 (GeneID 40423)	DRSC11726	1.16e5	1.25e5		4236	13562	inactive
CG43295 (GeneID 12797916)	DRSC09416	1.90e5			4393		inactive
dpr9 (GeneID 2768670)	DRSC14534	1.25e5	89880		4794	3490	inactive
dpr9 (GeneID 2768670)	DRSC14985	61701	69212		1367	1821	inactive
dpr9 (GeneID 2768670)	DRSC14986	73440	64887		2151	1828	inactive
CG8142 (GeneID 32763)	DRSC20086	1.33e5	1.33e5		2957	3031	inactive
CG9368 (GeneID 40135)	DRSC11067	55888	94304		2082	3581	inactive
Su(var)3-7 (GeneID 41627)	DRSC16872	64948	59259		2109	1650	inactive
Blm + CG14721	DRSC14943	90263	1.04e5		2929	3205	inactive
Xport-A + Xport-B	DRSC15586	92204	83683		4170	3472	inactive
Rab7 (GeneID 42841)	DRSC16810	1.21e5	63378		5065	2972	inactive
CG1468 (GeneID 31920)	DRSC17946	82784	83472		2197	1952	inactive
AANATL7 (GeneID 31236)	DRSC18616	81000	2.03e5		2953	8706	inactive
Socs16D (GeneID 32760)	DRSC20087	53306	2.18e5		2236	10068	inactive
jub (GeneID 32351)	DRSC19367	61824	73489		1763	1744	inactive
Kaz1-ORFB (GeneID 3772691)	DRSC08669	67621	49233		2130	3270	inactive
COX7AL (GeneID 40995)	DRSC15313	48180	1.37e5		1770	3616	inactive
CG4593 (GeneID 31649)	DRSC18374	54477	1.09e5		2626	5571	inactive
CG32040 (GeneID 317835)	DRSC08981	1.71e5	3.55e5		4807	14412	inactive
CG14102 (GeneID 40156)	DRSC10103	55209	74417		2201	2157	inactive
HtrA2 (GeneID 41756)	DRSC16425	77050	92386		2800	2442	inactive
CG3270 (GeneID 35575)	DRSC04988	1.26e5	59203		4584	2347	inactive
spas (GeneID 42846)	DRSC15929	1.20e5	61449		4981	2464	inactive
CG8209 (GeneID 38888)	DRSC10970	54103	91124		5147	6512	inactive
Kaz (GeneID 326135)	DRSC14637	6.10e5	1.33e5		27787	3206	inactive
CG2614 (GeneID 35326)	DRSC02711	6.16e5	1.20e5		4901	4901	inactive
MED1 (GeneID 40403)	DRSC11808	1.32e5	1.17e5		5440	4683	inactive
Npc1a (GeneID 34358)	DRSC03378	67160	45324		2115	3798	inactive
CG14252 (GeneID 43238)	DRSC14747	1.04e5	84135		3716	2077	inactive
lncRNA:CR34047 (GeneID 12798361)	DRSC07857	5.39e5	1.58e5	82189	3792	4875	inactive
slv (GeneID 35773)	DRSC07685	64096	45685		1377	3716	inactive
beat-IIa (GeneID 42086)	DRSC14813	90933	1.28e5		2692	3161	inactive
beat-IIa (GeneID 42086)	DRSC14814	69035	81104		1826	1904	inactive
PIG-A (GeneID 37020)	DRSC06982	81848	58016		3944	2608	inactive

Entries listed so far with an active call:
target	DRSC id	firefly Hh reporter signal, replicate 1	firefly Hh reporter signal, replicate 2	firefly Hh reporter signal, replicate 3	Renilla reference signal, replicate 1	Renilla reference signal, replicate 2	Outcome
RpLP0 (GeneID 40451)	DRSC11878	72009	69383		2754	3893	active
